From article PMC3096577
No constants are given. Whether binding was seen depends on the method and setting. Binding seen in cells or lysates may run through a third protein. Here binding means that the protein was enriched with, or labelled near, the bait; the list need not be complete. No binding means not detected with the bait.

Amino acid sequences for entries named in this document (tags omitted).
UniProt P20442: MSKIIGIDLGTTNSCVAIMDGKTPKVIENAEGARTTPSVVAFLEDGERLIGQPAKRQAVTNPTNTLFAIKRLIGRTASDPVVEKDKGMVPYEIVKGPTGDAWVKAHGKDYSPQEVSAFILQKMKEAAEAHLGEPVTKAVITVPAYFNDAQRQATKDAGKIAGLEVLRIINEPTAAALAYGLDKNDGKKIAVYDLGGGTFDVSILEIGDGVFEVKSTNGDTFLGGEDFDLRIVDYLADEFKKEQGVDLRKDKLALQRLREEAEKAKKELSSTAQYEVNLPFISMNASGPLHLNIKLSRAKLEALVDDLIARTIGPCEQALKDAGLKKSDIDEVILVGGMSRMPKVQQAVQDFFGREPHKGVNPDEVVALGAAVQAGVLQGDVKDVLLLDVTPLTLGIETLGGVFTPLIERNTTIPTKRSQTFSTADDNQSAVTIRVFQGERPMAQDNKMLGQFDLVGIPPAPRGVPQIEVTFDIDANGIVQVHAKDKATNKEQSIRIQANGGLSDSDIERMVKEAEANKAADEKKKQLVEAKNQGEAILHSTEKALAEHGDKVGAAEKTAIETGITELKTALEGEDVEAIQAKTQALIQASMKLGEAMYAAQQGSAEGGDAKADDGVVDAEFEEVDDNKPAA
UniProt Q99QM0: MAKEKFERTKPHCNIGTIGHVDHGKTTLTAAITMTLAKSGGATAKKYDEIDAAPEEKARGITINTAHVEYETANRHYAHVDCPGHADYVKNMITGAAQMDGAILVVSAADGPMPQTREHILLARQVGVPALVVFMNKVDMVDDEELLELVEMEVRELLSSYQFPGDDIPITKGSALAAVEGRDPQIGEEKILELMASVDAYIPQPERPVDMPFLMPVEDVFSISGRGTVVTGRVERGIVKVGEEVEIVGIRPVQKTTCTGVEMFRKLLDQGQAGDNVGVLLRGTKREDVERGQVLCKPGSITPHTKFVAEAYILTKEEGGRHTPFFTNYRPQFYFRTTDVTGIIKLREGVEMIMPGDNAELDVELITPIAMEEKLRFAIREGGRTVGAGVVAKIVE

Target: histidine-tagged wild-type FliX (C. crescentus)
Assay: affinity purification with mass spectrometry; FliX-His coupled to CNBr-activated sepharose 4B beads; incubated overnight at 4°C with LS107 cell extract in PBS (0.1 M sodium phosphate, 0.15 M NaCl, pH 7.2); washed with PBS; bands of a Coomassie-stained SDS-PAGE gel identified by ESI-ion trap mass spectrometry; bead complexes also washed with phosphate buffer containing 0.3 to 2.65 M NaCl; only the target purified

binding	Substance
no binding	heat shock protein DnaK (from UniProt P20442 1-631)
no binding	elongation factor EF-Tu (from UniProt Q99QM0 1-396)
